Measurements taken from patent US4459296A, “Piperazines and homopiperazines, N-substituted by an aromatic heterocyclic group, and their use in therapeutics” (Delalande S.A., priority 1982, dated 1984).
At least one read-out could not be matched to a standard name with certainty.

System: S.H.R. rats (genetically hypertensive)
Assay: Antihypertensive activity by oral administration to S.H.R. rats (genetically hypertensive)
Assay type: in vivo
Procedure: The arterial blood pressure was recorded on an APELAB-BP recorder 8002-and an electromechanical counter provided a direct reading of the heartbeat rate. The measurements were taken at 0 hour, 2 hours, 4 hours, 6 hours and 24 hours after administration of the compounds tested.
To illustrate the invention, the results obtained with some of the compounds of the invention are shown in Table II below in which the symbols AHY, ΔPA and ΔFC have the following meanings:
AHY=% of rats whose arterial blood pressure drops by a value greater than or equal to 20% of the initial value or is brought down to a value less than 150 mmHg,
ΔPA=% variation of the arterial blood pressure in all the animals tested with respect to the initial blood pressure,
ΔFC=% variation of the heart-beat rate of all the animals tested with respect to the initial rate.

[1] = dose 25, 4 hours after administration
[2] = dose 25, 6 hours after administration
[3] = dose 25, 24 hours after administration
[4] = dose 50, 4 hours after administration
[5] = dose 10, 2 hours after administration
[6] = dose 10, 4 hours after administration
[7] = dose 10, 6 hours after administration
[8] = dose 10, 24 hours after administration

Row | Structure (SMILES) | AHY (% of rats whose arterial blood pressure drops by ≥20% of initial value or to <150 mmHg) [5] [%] | ΔFC (% variation of the heart-beat rate vs initial) [5] [%] | ΔPA (% variation of the arterial blood pressure vs initial) [5] [%] | AHY (% of rats whose arterial blood pressure drops by ≥20% of initial value or to <150 mmHg) [6] [%] | ΔFC (% variation of the heart-beat rate vs initial) [6] [%] | ΔPA (% variation of the arterial blood pressure vs initial) [6] [%] | AHY (% of rats whose arterial blood pressure drops by ≥20% of initial value or to <150 mmHg) [7] [%] | ΔFC (% variation of the heart-beat rate vs initial) [7] [%] | ΔPA (% variation of the arterial blood pressure vs initial) [7] [%] | AHY (% of rats whose arterial blood pressure drops by ≥20% of initial value or to <150 mmHg) [8] [%] | ΔFC (% variation of the heart-beat rate vs initial) [8] | ΔPA (% variation of the arterial blood pressure vs initial) [8] [%] | further results
1 | c1cc(N2CCNCC2)c2nn[nH]c2c1 [compound 39] | – | – | – | – | – | – | – | – | – | – | – | – | AHY (% of rats whose arterial blood pressure drops by ≥20% of initial value or to <150 mmHg) [1]: 80%; ΔFC (% variation of the heart-beat rate vs initial) [1]: -7%; ΔPA (% variation of the arterial blood pressure vs initial) [1]: -26%; AHY (% of rats whose arterial blood pressure drops by ≥20% of initial value or to <150 mmHg) [2]: 100%; ΔFC (% variation of the heart-beat rate vs initial) [2]: -5%; ΔPA (% variation of the arterial blood pressure vs initial) [2]: -34%; AHY (% of rats whose arterial blood pressure drops by ≥20% of initial value or to <150 mmHg) [3]: 40%; ΔFC (% variation of the heart-beat rate vs initial) [3]: +5%; ΔPA (% variation of the arterial blood pressure vs initial) [3]: -17%
2 | c1cc(N2CCNCC2)c2nc[nH]c2c1 [Code No. 1, (piperazino-1)-4(7) benzimidazole, tribromhydrate] | – | – | – | – | – | – | – | – | – | – | – | – | AHY (% of rats whose arterial blood pressure drops by ≥20% of initial value or to <150 mmHg) [4]: 100%; ΔFC (% variation of the heart-beat rate vs initial) [4]: 0%; ΔPA (% variation of the arterial blood pressure vs initial) [4]: -20%
3 | c1cc(N2CCNCC2)c2cc[nH]c2c1 [compound 41] | 86 | 0 | -38 | 100 | -8 | -46 | 86 | -2 | -27 | 28 | -2% | -19 | –
4 | c1cc(N2CCNCC2)c2[nH]ccc2c1 [compound 42] | 33 | -10 | -15 | 50 | -10 | -25 | 100 | -22 | -29 | 17 | +7% | -19 | –
